Some entries repeat one wording, which the source may state once for all of them.
Assay: Alignment degree of the light absorption anisotropic film (absorbance with linear polarizer, 400 nm to 700 nm)
Details: light absorption anisotropic film from liquid crystal composition P1 with the listed dichroic substance in place of Y1

Compound | alignment degree
COC(C)(CCCCOc1ccc(/N=N/c2ccc(/N=N/c3ccc(/N=N/c4ccc(OCCCCC(C)(OC)OC)cc4Cl)cc3C)cc2)c(Cl)c1)OC [B-1] | AA (The alignment degree was 0.95 or more)
CCCCCCCCOc1ccc(C(=O)Oc2ccc(/N=N/c3ccc(/N=N/c4ccc(OCCCCC(C)(OC)OC)cc4C)cc3)cc2)cc1 [B-2] | A (The alignment degree was 0.93 or greater and less than 0.95)
C=CC(=O)OCCCCCCCCCOc1ccc(/N=N/c2cc3sc(/N=N/c4ccc(N(C)CCOC(=O)CCC(C)(OC)OC)cc4)nc3s2)cc1 [B-3] | A (The alignment degree was 0.93 or greater and less than 0.95)
COC(C)(CCCCOc1ccc(/N=N/c2ccc(/N=N/c3ccc(N(C)C)cc3)cc2)cc1)OC [B-4] | A (The alignment degree was 0.93 or greater and less than 0.95)
Cc1cc(/N=N/c2ccc(OCCCCC3(C)OCCO3)cc2)ccc1/N=N/c1ccc(/N=N/c2ccc(OCCCCC3(C)OCCO3)cc2)cc1 [B-5] | A (The alignment degree was 0.93 or greater and less than 0.95)
CCOC(C)OCCCCOc1ccc(/N=N/c2ccc(/N=N/c3ccc(/N=N/c4ccc(OCCCCOC(C)OC)cc4)cc3)c(C)c2)cc1 (stereo not shown) [B-6] | A (The alignment degree was 0.93 or greater and less than 0.95)
COC(CCCCOc1ccc(/N=N/c2ccc(/N=N/c3ccc(/N=N/c4ccc(OCCCCC(OC)OC)cc4)cc3C)cc2)cc1)OC [B-7] | A (The alignment degree was 0.93 or greater and less than 0.95)
Cc1cc(/N=N/c2ccc(OCCCCC(=O)OC(C)(C)C)cc2)ccc1/N=N/c1ccc(/N=N/c2ccc(OCCCCC(=O)OC(C)(C)C)cc2)cc1 [B-8] | A (The alignment degree was 0.93 or greater and less than 0.95)
CC(=O)OC(C)(C)CCCOc1ccc(/N=N/c2ccc(/N=N/c3ccc(/N=N/c4ccc(OCCCC(C)(C)OC(C)=O)cc4)cc3C)cc2)cc1 [B-9] | A (The alignment degree was 0.93 or greater and less than 0.95)
Cc1cc(/N=N/c2ccc(OCCCNC(=O)OC(C)(C)C)cc2)ccc1/N=N/c1ccc(/N=N/c2ccc(OCCCNC(=O)OC(C)(C)C)cc2)cc1 [B-10] | B (The alignment degree was 0.90 or greater and less than 0.83)
COC(C)(CCOCCOc1ccc(/N=N/c2ccc(/N=N/c3ccc(/N=N/c4ccc(OCCOCCC(C)(OC)OC)cc4)cc3C)cc2)cc1)OC [B-11] | A (The alignment degree was 0.93 or greater and less than 0.95)
Cc1cc(/N=N/c2ccc(OCCCCC(OCCC(F)(F)F)OCCC(F)(F)F)cc2)ccc1/N=N/c1ccc(/N=N/c2ccc(OCCCCC(OCCC(F)(F)F)OCCC(F)(F)F)cc2)cc1 [B-12] | A (The alignment degree was 0.93 or greater and less than 0.95)
Cc1cc(/N=N/c2ccc(OCCCCC(OCCC[Si](C)(C)C)OCCC[Si](C)(C)C)cc2)ccc1/N=N/c1ccc(/N=N/c2ccc(OCCCCC(OCCC[Si](C)(C)C)OCCC[Si](C)(C)C)cc2)cc1 [B-13] | A (The alignment degree was 0.93 or greater and less than 0.95)
CC(=O)CCCCOc1ccc(/N=N/c2ccc(/N=N/c3ccc(/N=N/c4ccc(OCCCCC(C)=O)cc4Cl)cc3C)cc2)c(Cl)c1 [HB-1, reference compound] | AA (The alignment degree was 0.95 or more)
CCOC(=O)CCCCOc1ccc(/N=N/c2ccc(/N=N/c3ccc(/N=N/c4ccc(OCCCCC(=O)OCC)cc4)cc3C)cc2)cc1 [HB-2, reference compound] | AA (The alignment degree was 0.95 or more)
C=CC(=O)CCCCCOc1ccc(/N=N/c2ccc(/N=N/c3ccc(/N=N/c4ccc(OCCCCOC(=O)C=C)cc4C)cc3C)cc2)c(C)c1 [HB-3, reference compound] | C (The alignment degree was less than 0.90)

— patent US20260140287A1, “LIQUID CRYSTAL COMPOSITION, OPTICAL ABSORPTION ANISOTROPIC FILM, METHOD OF PRODUCING OPTICAL ABSORPTION ANISOTROPIC FILM, OPTICAL LAMINATE, AND IMAGE DISPLAY APPARATUS” (FUJIFILM Corporation, priority 2023, published 2026)
